What was measured:
Format in all cases: biochemical
Conditions in all cases: lower numbers mean greater stability
[1] = tested on: β-lactamase (organism 1082E); test: Stability to β-lactamases, 1082E
Text: (§1) The compounds of the invention also have good stability to β-lactamases.

[2] = tested on: β-lactamase (organism 1313G); test: Stability to β-lactamases, 1313G
Text: as §1

[3] = tested on: β-lactamase (organism 265A); test: Stability to β-lactamases, 265A
Text: as §1

β-lactamase (TEM) = test: Stability to β-lactamases, TEM
Text: as §1

[4] = tested on: β-lactamase (organism PS185); test: Stability to β-lactamases, PS185
Text: as §1

SMILES: CC1=C(C(=O)O)N2C(=O)[C@@H](NC(=O)[C@H](N)c3ccccc3)[C@H]2SC1 [Cephalexin, reference compound]
- Stability to β-lactamases [1]: 6
- Stability to β-lactamases [2]: 254
- Stability to β-lactamases [3]: 72
- Stability to β-lactamases (β-lactamase (TEM)): 1
- Stability to β-lactamases [4]: 37

From patent US4490370A, “Naphthylglycyl cephalosporin derivatives” (priority 1983, dated 1984)
